Weaker means in comparison with the reference protein, sequence or condition of that experiment. Where a protein sequence is shown, tags need not be part of it.
Biological target: T1, sclerostin (SOST) (Homo sapiens) (UniProt Q9BQB4)
T1 sequence: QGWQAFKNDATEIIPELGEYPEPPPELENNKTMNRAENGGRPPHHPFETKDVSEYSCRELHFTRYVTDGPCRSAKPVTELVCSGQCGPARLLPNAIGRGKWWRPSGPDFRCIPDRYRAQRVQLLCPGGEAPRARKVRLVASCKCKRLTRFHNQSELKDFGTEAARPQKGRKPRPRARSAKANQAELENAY
Experiment: ELONA
Details: low binding, curve could not be fitted; purified recombinant protein; label: biotin (binding assay); single-stranded DNA; variant of aptscl 3

Sequence: TGTTGTACATCGCCTTACGCACGTG [aptscl 3-6]
- binding result: binds more weakly
